In PubChem BioAssay AID493014 (National Center for Advancing Translational Sciences (NCATS), 2011):
The other results are listed elsewhere or left out. These are further read-outs of the screen, such as a control signal, another cell line or another target. No call is given for them. The list favours compounds with an active or inconclusive main result. The note in brackets gives the kind of curve behind each potency; many fits are weak.

Assay: qHTS Assay to Find Inhibitors of Chronic Active B-Cell Receptor Signaling
Details: ABC-DLBCL IkBa-CBG/CBR reporter, luminescence ratio (green luciferase fused to IkBa over red control in TMD8 lymphoma cells), 4 h
In short: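 TMD8 ABC-DLBCL cells carrying doxycycline-inducible green luciferase fused to IkappaBalpha plus unfused red luciferase were exposed to compounds (up to 46 uM) for 4 hrs at 37C. Activity came from the overlap-corrected green/red luminescence ratio.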

[1] = measured here: CBR red luminescence, cell number
[2] = measured here: IkBa-CBG green luminescence

In the case of `COc1ccc(CNC(=O)C2CCN(S(=O)(=O)c3cccc4nsnc34)CC2)cc1`, the AC50 [1] is reported as 12.6 µM [falling, partial curve, poor fit].
In the case of `O=C(NNC(=O)c1ccc(NC(=O)c2ccccc2)cc1)c1ccc(F)cc1`, the AC50 [1] is reported as 10 µM [rising, partial curve, poor fit].
In the case of `NC(=O)c1ccccc1-c1nc(-c2ccccc2)no1`, the AC50 [1] is reported as 35.5 µM [falling, single point].
With `CC(=O)c1ccc(NC(=S)N2CCC(Cc3ccccc3)CC2)cc1` the AC50 [1] was 20 µM [falling, single point].
For `C=CCn1cccc(/C=C/C(=O)c2ccc(C(C)(C)C)cc2)c1=S`, the AC50 [1] was 20.6 µM [falling, single point].
For `CN(C)/C=C(\C#N)C(=O)c1cccc(Oc2ccc(Br)cc2)c1`, the AC50 [1] was 0.501 µM [rising, full curve, poor fit].
In the case of `CSc1ccc(Cl)c(C(=O)Nc2ccc(C)cn2)c1`, the AC50 [1] is reported as 17.8 µM [falling, single point].
With `O=C(N/N=C/c1ccc(Br)s1)c1cccs1` the AC50 [1] was 14.1 µM [falling, partial curve].
For `CC(Oc1ccc(Br)cc1)C(=O)NC1CCCCCC1` (centres undefined), the AC50 [1] was 0.82 µM [rising, full curve, poor fit].
In the case of `COc1ccc(NC(=O)NN2CCN(C)CC2)cc1OC`, the AC50 [1] is reported as 17.8 µM [rising, partial curve, poor fit].
With `CC(C)(C)OC(=O)[C@H](Cc1ccccc1)NC(=O)c1nc[nH]c1C(=O)NCCCCCN` the AC50 [1] was 23.1 µM [falling, partial curve].
For `Cc1c(NC(=O)CSc2nnnn2Cc2ccccc2)c(=O)n(-c2ccccc2)n1C`, the AC50 [1] was 3.55 µM [rising, partial curve, poor fit].
For `Cc1ccccc1OCCn1cc(C(=O)C(=O)N2CCOCC2)c2ccccc21`, the AC50 [1] was 1.58 µM [falling, full curve, poor fit].
For `N#C/C(C(=O)N1CCCCC1)=C1\Nc2ccccc2S1`, the AC50 [1] was 1.84 µM [falling, full curve].
In the case of `C=CCSC1=N/C(=C\c2sccc2C)C(=O)S1`, the AC50 [1] is reported as 22.4 µM [rising, single point].
With `Cc1ccc(Cn2cccc(-c3nc4ccccc4s3)c2=O)cc1` the AC50 [1] was 32.6 µM [falling, single point].
For `Clc1ccccc1-c1nnc2sc(-c3ccc4c(c3)OCO4)nn12`, the AC50 [1] was 5.8 µM [falling, partial curve].
For `C/C(=C\c1cccs1)C(=O)c1c(C)cc(C)[nH]c1=O`, the AC50 [1] was 22.4 µM [rising, single point].
With `COc1ccc(C(=O)COC(=O)c2cccs2)cc1` the AC50 [1] was 29.1 µM [falling, single point].
For `OCCNc1nc(Nc2ccccc2)nc2ccccc12`, the AC50 [1] was 16.4 µM [falling, partial curve].
With `CN(CC(=O)N1CCCC1)S(=O)(=O)c1ccc(Cl)cc1` the AC50 [1] was 3.66 µM [rising, partial curve, poor fit].
In the case of `N#CCc1c(C#N)c(N)nc(Nc2ccccc2)c1C#N`, the AC50 [1] is reported as 17.8 µM [rising, partial curve] and the AC50 [2] is reported as 35.5 µM [falling, single point].
In the case of `COC(=O)c1ccc(S(=O)(=O)N2CCN(C(c3ccccc3)c3ccccc3)CC2)n1C`, the AC50 [1] is reported as 28.2 µM [rising, single point].
In the case of `CCCCc1ccc(NC(=O)c2cnccn2)cc1`, the AC50 [1] is reported as 7.94 µM [falling, partial curve, poor fit].
For `COc1ccc(C(=O)COC(=O)c2cc([N+](=O)[O-])ccc2N2CCOCC2)c(OC)c1`, the AC50 [1] was 13 µM [rising, partial curve, poor fit] and the AC50 [2] was 25.9 µM [falling, partial curve, poor fit].
With `Cc1nn2cc(-c3ccc(Cl)cc3)cnc2c1Br` the AC50 [1] was 0.0891 µM [rising, full curve, poor fit].
For `CCOc1ccc(CCNC(=O)CCS(=O)(=O)c2ccc(Br)cc2)cc1OCC`, the AC50 [1] was 0.1 µM [rising, full curve, poor fit].
In the case of `Cn1c(Sc2nc3ccccc3n2C)nc2ccccc21`, the AC50 [1] is reported as 22.4 µM [falling, single point].
For `O=C(NCc1ccccc1CN1CCCC1)c1cc2ccccc2o1`, the AC50 [1] was 29.1 µM [falling, single point].
In the case of `COC(=O)CCC(=O)NC(=S)Nc1sc(C)c(C)c1C(N)=O`, the AC50 [1] is reported as 20.6 µM [rising, partial curve] and the AC50 [2] is reported as 5.8 µM [falling, full curve].
For `Cc1cccc(NC(=O)Cn2c(=O)n(C)c3ccccc32)c1`, the AC50 [1] was 1.84 µM [rising, partial curve, poor fit].
In the case of `CC(C)Sc1ccccc1C(=O)Nc1ccc2c(c1)n(C)c(=O)n2C`, the AC50 [1] is reported as 14.1 µM [rising, partial curve] and the AC50 [2] is reported as 11.2 µM [falling, partial curve].
With `Cc1ccc(-n2c(SCC(=O)NCc3ccco3)nc3c(sc4ccccc43)c2=O)cc1` the AC50 [1] was 29.1 µM [falling, single point].
For `Cc1ccc(N=Cc2c(O)c3ccccc3n(C)c2=O)cc1`, the AC50 [1] was 35.5 µM [falling, single point].
With `CC1(C)C2CCC1(C)C(OCC[N+](C)(C)CC(=O)OC1CCCCC1)C2` (centres undefined) the AC50 [1] was 8.2 µM [falling, partial curve].
For `CCn1c(SCC(=O)Nc2ccccc2C(=O)OC)nnc1-c1ccc(N)cc1`, the AC50 [1] was 35.5 µM [falling, single point].
With `Cc1cccc(C(=O)N[C@@H](C)C(=O)N2CCN(c3ncccn3)CC2)c1` the AC50 [1] was 4.11 µM [rising, full curve, poor fit].
In the case of `CO/N=C(/CS(=O)c1ccc(Br)cc1)c1ccc(OC)cc1` (centres undefined), the AC50 [1] is reported as 4.11 µM [rising, partial curve, poor fit].
For `Cc1[nH]c2ccccc2c1-c1csc(NC(=O)CSCCO)n1`, the AC50 [1] was 14.1 µM [rising, single point].
With `CCOC(=O)c1cnc(Nc2nc3ccccc3o2)nc1CN1CCN(C)CC1` the AC50 [1] was 12.6 µM [falling, partial curve, poor fit].
For `O=C(NCc1cccnc1)c1cc(-c2ccco2)on1`, the AC50 [1] was 11.2 µM [falling, single point].
With `CC(OC(=O)c1ccco1)C(=O)Nc1ncc(Cl)cc1Cl` (centres undefined) the AC50 [1] was 7.31 µM [rising, partial curve, poor fit].
In the case of `O=c1c2ccccc2[nH]c(=S)n1CCCN1CCOCC1`, the AC50 [1] is reported as 1.84 µM [rising, single point].
For `O=C(CCSCc1ccccc1)Nc1ccc2c(c1)OCCO2`, the AC50 [1] was 3.16 µM [rising, partial curve, poor fit].
For `COc1ccc(S(=O)(=O)N2CCOCC2)cc1NC(=O)CSc1n[nH]c(=O)n1C1CC1`, the AC50 [1] was 0.517 µM [falling, full curve].
With `C#CCOc1ccc(C2C3=C(COC3=O)Nc3cc4c(cc32)OCO4)cc1OC` (centres undefined) the AC50 [1] was 0.1 µM [rising, full curve, poor fit] and the AC50 [2] was 0.224 µM [falling, full curve].
For `CC(C)(C)[C@H]1C=C(C(=O)NCc2nc3ccccc3[nH]2)O[C@@H](OCCCCO)C1`, the AC50 [1] was 0.0891 µM [rising, full curve, poor fit].
In the case of `O=C(CSc1nc2[nH]ncc2c(=O)[nH]1)c1ccccc1`, the AC50 [1] is reported as 3.98 µM [falling, full curve].
With `C=CC[C@@H](CC(=O)N(CCO)Cc1ccccc1)C(=O)N[C@H](C)COC(=O)[C@@H](CC=C)Cc1ccc(F)cc1` the AC50 [1] was 29.1 µM [falling, single point].
For `Cc1ccccc1C1=N/C(=C/c2cccs2)C(=O)O1`, the AC50 [1] was 35.5 µM [falling, single point].
With `CCOc1ccc(S(=O)(=O)N(C)c2ccc(OCC(=O)Nc3nccs3)cc2)cc1` the AC50 [1] was 14.1 µM [falling, single point].
In the case of `Cc1ccc(-c2nn(-c3ccccc3)cc2CO)cc1`, the AC50 [1] is reported as 0.316 µM [rising, full curve].
In the case of `COc1cc(F)cc(-c2ccc3c(c2)c(-c2cccs2)c(-c2cc(OC)cc(OC)c2)n3C)c1`, the AC50 [1] is reported as 29.1 µM [rising, single point] and the AC50 [2] is reported as 29.1 µM [falling, single point].
For `O=C(NNc1ccccc1Br)C(=O)n1ccc2ccccc21`, the AC50 [1] was 2.06 µM [falling, full curve].
In the case of `Cc1cccc(C)c1NC(=O)CNC(=O)c1cn(-c2ccccc2)nc1-c1ccccc1`, the AC50 [1] is reported as 22.4 µM [rising, partial curve, poor fit].
For `O=C(CCCn1c(=S)[nH]c2ccccc2c1=O)N1CCCCC1`, the AC50 [1] was 8.2 µM [falling, partial curve].
In the case of `Cc1nnc(C)n1/N=C/c1cc2ccccc2nc1Cl`, the AC50 [2] is reported as 35.5 µM [falling, partial curve, poor fit].
For `CC(C)c1ccc(/C=C/C(=O)NC(=S)Nc2ccc(CN3CCOCC3)cc2)cc1`, the AC50 [1] was 29.1 µM [rising, single point].
For `COCC(=O)N/N=C\c1ccc(OC/C=C/c2ccccc2)c(OC)c1`, the AC50 [1] was 17.8 µM [rising, single point].
With `O=C(NCC1CC1)C1CCCN(S(=O)(=O)c2ccc(-n3cnnn3)cc2)C1` (centres undefined) the AC50 [1] was 16.4 µM [falling, single point].
For `CCc1ccc(CCC(=O)Nc2sc(C)c(C)c2C(=O)OC)o1`, the AC50 [1] was 1.3 µM [falling, partial curve, poor fit].
For `COC(=O)C1(Cc2cc(-c3ccccc3)no2)CCN(C(=O)OC(C)(C)C)CC1`, the AC50 [1] was 3.98 µM [falling, partial curve].
With `COc1ccc(C2NC(=O)NC(C)=C2[N+](=O)[O-])cc1OC` (centres undefined) the AC50 [1] was 35.5 µM [rising, single point].
